# Results: paper PMC10564737, “Structure-based design of a phosphotyrosine-masked covalent ligand targeting the E3 ligase SOCS2” (Nature Communications, 2023)
# The chains behind the UniProt entries cited, without tags or fusion partners. Residues count along the entry.
# UniProt O14508, 32-198: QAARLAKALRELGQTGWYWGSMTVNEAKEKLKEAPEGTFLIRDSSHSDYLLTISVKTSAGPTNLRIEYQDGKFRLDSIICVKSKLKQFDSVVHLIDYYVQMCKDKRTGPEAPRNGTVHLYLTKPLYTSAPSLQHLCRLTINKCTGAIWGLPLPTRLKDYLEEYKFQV
# Where “and” joins values, the source holds several entries; their conditions need not be identical. Equal values may be shown once. This continues a long series; more values of the same kind are listed elsewhere.
# Target: T1, SBC2 (Homo sapiens, UniProt O14508)
# T1 construct: SOCS2 (amino acids 32–198); His6 (N, cleaved yes); made in house; host or cells: E. coli BL21(DE3)
# Assay: Covalent fluorescence polarization (FP) probe displacement assay
# Format: binding
# From the text: With the specific covalent modification of Cys111 established, we decided to fully characterize MN551 as a covalent SOCS2 inhibitor. […] (Fig. 2g, h, Supplementary Fig. 9). Due to the covalent nature of the competing inhibitor, a time-dependent reduction in the fraction of protein-bound probe is observed. […] This value illustrates reasonable specificity for a covalent inhibitor, with nonetheless scope for future optimization. In addition to characterizing the kinetic covalency parameters, we have also assessed the stability of the MN551 by monitoring its reactivity (half-life >70 min) with reduced glutathione (GSH) (Supplementary Fig. 10)[35].
# To monitor the SBC2-ligand binding kinetics we designed a fluorescein-labeled small-molecule probe - compound 26. The fluorescence polarization (anisotropy) of a threefold serial dilution of 50 µM SBC2 in 10 nM of the probe in 100 mM HEPES pH 7.5, 50 mM NaCl, 0.5 mM TCEP, 2% DMSO was measured to determine the KL (Supplementary Fig. 9A) (BMG Labtech PHERAstar – firmware v1.33). Protein titration and the curves were fitted using GraphPad Prism 9, using one-site fitting models to determine the probe binding constant, KL. Samples were run in triplicate in 384 well plates, using a total volume per well of 16 μL. The bound fraction of the probe is measure using the equation:1 Fb=Af−A/Af−Ab Where,
# A time-dependent reduction in probe anisotropy were measured for a 2-fold serial dilution of […] compound MN551 in 10 nM probe +300 μM SBC2. To determine the initial reversible binding affinity, the initial bound fraction of the probe at time = 0, Fbo (the y-intercept in Fb v/s Time plot, Supplementary Fig. 9B) was plotted against MN551 concentration, and the obtained IC50 is then converted to Ki (Supplementary Fig. 9C)[17]. The slope from Fb versus time graph when divided by Fbo gives rate of covalency, kobs. A plot of kobs v/s MN551 concentration using Michaelis–Menten model of GraphPad Prism 9, provides the parameters kinact (maximum potential rate of inactivation) and KI (concentration of MN551 at which kobs = kinact/2) (Supplementary Fig. 9D, E).
# The observed first-order rate constant, kobs is related to KI and kinact by the equation:2 kobs=kinactI/KI+I
# At [I]«[KI] the above equation is converted to3 […]
# The slope from the plot of kobs against concentration of MN551 gives us the covalent efficiency parameter kinact/KI (Supp Fig. 9F)[30],[33].
# [1] = MN551 25000 nM; Cycle 10 (45 min)
# [2] = MN551 25000 nM; Cycle 11 (50 min)
# [3] = MN551 25000 nM; Cycle 13 (60 min); n=1
# [4] = MN551 25000 nM; Cycle 14 (65 min); n=1
# [5] = MN551 25000 nM; Cycle 15 (70 min); n=1
# [6] = MN551 25000 nM; Cycle 16 (75 min); n=1
# [7] = MN551 25000 nM; Cycle 17 (80 min); n=1
# [8] = MN551 50000 nM; Cycle 7 (30 min)
# [9] = MN551 50000 nM; Cycle 8 (35 min)
# [10] = MN551 50000 nM; Cycle 9 (40 min)
# [11] = MN551 50000 nM; Cycle 10 (45 min)
# [12] = MN551 50000 nM; Cycle 11 (50 min)
# [13] = MN551 50000 nM; Cycle 13 (60 min); n=1
# [14] = MN551 50000 nM; Cycle 14 (65 min); n=1
# [15] = MN551 50000 nM; Cycle 15 (70 min); n=1
# [16] = MN551 50000 nM; Cycle 16 (75 min); n=1
# [17] = MN551 50000 nM; Cycle 17 (80 min); n=1
# [18] = MN551 100000 nM; Cycle 8 (35 min)
# [19] = MN551 100000 nM; Cycle 9 (40 min)
# [20] = MN551 100000 nM; Cycle 10 (45 min)
# [21] = MN551 100000 nM; Cycle 11 (50 min)
# [22] = MN551 100000 nM; Cycle 13 (60 min); n=1
# [23] = MN551 100000 nM; Cycle 14 (65 min); n=1
# [24] = MN551 100000 nM; Cycle 15 (70 min); n=1
# [25] = MN551 100000 nM; Cycle 16 (75 min); n=1
# [26] = MN551 100000 nM; Cycle 17 (80 min); n=1
smiles,measurement,setting,value
O=C(CCl)Nc1cccc(CNC(=O)[C@H](Cc2ccc(OP(=O)(O)O)cc2)NC(=O)Cc2ccc(F)cc2)c1 [MN551],Anisotropy based on Raw Data (485),[1],179.1 and 180.2 and 176.3
same,"Anisotropy data 485,520,520",[1],182.9 and 178.7 and 181.7
same,Anisotropy,[2],177.2 and 179.6 and 175.9
same,Anisotropy based on Raw Data (485),[2],178.1 and 177.2 and 175.1
same,"Anisotropy data 485,520,520",[2],182.7 and 179.2 and 179.8
same,Anisotropy,MN551 25000 nM; Cycle 12 (55 min); n=1,177.3 and 177.9 and 177.6
same,Anisotropy,[3],176.7 and 177.8 and 178.2
same,Anisotropy based on Raw Data (485),[3],177.7 and 176.9 and 174
same,Anisotropy,[4],176.4 and 175.6 and 177.3
same,Anisotropy based on Raw Data (485),[4],174 and 174.6 and 175.5
same,Anisotropy,[5],174.6 and 173 and 176.3
same,Anisotropy based on Raw Data (485),[5],173.3 and 172.8 and 172.7
same,Anisotropy,[6],175 and 173.3 and 175.5
same,Anisotropy based on Raw Data (485),[6],173.6 and 172.7 and 171.2
same,Anisotropy,[7],172.1 and 171.5 and 169.5
same,Anisotropy based on Raw Data (485),[7],171.4 and 170.6 and 170.9
same,"Anisotropy data 485,520,520",MN551 25000 nM; Cycle 20 (95 min); n=1,169.7 and 168.6 and 169.2
same,Fb,"MN551 50000 nM, Cycle 7 (30 min)",0.03791 and 0.07075 and 0.06918
same,Anisotropy based on Raw Data (485),"MN551 50000 nM, Cycle 12 (55 min)",177.6 and 172.1 and 175.1
same,Anisotropy,"MN551 50000 nM, Cycle 14 (65 min), n=1",173.4 and 172 and 172.2
same,Anisotropy,"MN551 50000 nM, Cycle 15 (70 min), n=1",172.5 and 171.1 and 170.2
same,Anisotropy,"MN551 50000 nM, Cycle 16 (75 min), n=1",169.5 and 170.8 and 170.4
same,Anisotropy,"MN551 50000 nM, Cycle 18 (85 min), n=1",167.8 and 169.8 and 170.4
same,"Fb, fraction bound",MN551 50000 nM; Cycle 6 (25 min),0.05203 and 0.06084 and 0.05571
same,"Anisotropy data 485,520,520",[8],181.3 and 180.8 and 182.9
same,Fb,[8],0.06938 and 0.08999 and 0.09318
same,Anisotropy,[9],176.5 and 176.7 and 179.9
same,"Anisotropy data 485,520,520",[9],181.4 and 180.1 and 181.9
same,Anisotropy,[10],175.1 and 176.8 and 175
same,Anisotropy based on Raw Data (485),[10],178.2 and 175.8 and 177.9
same,"Anisotropy data 485,520,520",[10],179.4 and 179.3 and 176.9
same,Anisotropy,[11],175.1 and 173.9 and 177.8
same,Anisotropy based on Raw Data (485),[11],177.1 and 175.3 and 177.7
same,"Anisotropy data 485,520,520",[11],177.6 and 176.4 and 178.8
same,Anisotropy,[12],173.8 and 175.5 and 177
same,Anisotropy based on Raw Data (485),[12],176.8 and 174.1 and 174.6
same,"Anisotropy data 485,520,520",[12],177.8 and 172.8 and 175.8
same,Anisotropy,MN551 50000 nM; Cycle 12 (55 min); n=1,174 and 176.4 and 177
same,Anisotropy,MN551 50000 nM; Cycle 13 (60 min),173.3 and 170.9 and 173
same,Anisotropy,[13],174.5 and 172.6 and 174.8
same,Anisotropy based on Raw Data (485),[13],175.6 and 171.5 and 173.7
same,Anisotropy,[14],175.6 and 173.5 and 174.3
same,Anisotropy based on Raw Data (485),[14],173 and 172.1 and 171.1
same,Anisotropy,[15],175.4 and 171.4 and 175.7
same,Anisotropy based on Raw Data (485),[15],173.8 and 170.7 and 170.9
same,Anisotropy,[16],172.4 and 172.3 and 175
same,Anisotropy based on Raw Data (485),[16],173.8 and 169.4 and 170.1
same,Anisotropy,[17],172.3 and 170.4 and 170.3
same,Anisotropy based on Raw Data (485),[17],173.1 and 170 and 171.2
same,"Anisotropy data 485,520,520",MN551 50000 nM; Cycle 20 (95 min); n=1,167.1 and 168.5 and 168.8
same,Anisotropy based on Raw Data (485),"MN551 100000 nM, Cycle 12 (55 min)",176.2 and 174.8 and 177.2
same,Anisotropy,"MN551 100000 nM, Cycle 14 (65 min), n=1",175.7 and 173.6 and 173.5
same,Anisotropy,"MN551 100000 nM, Cycle 15 (70 min), n=1",174.3 and 172.1 and 173.7
same,Anisotropy,"MN551 100000 nM, Cycle 16 (75 min), n=1",173.6 and 171.3 and 171.5
same,Anisotropy,"MN551 100000 nM, Cycle 18 (85 min), n=1",170 and 172.3 and 169
same,"Fb, fraction bound",MN551 100000 nM; Cycle 4 (15 min),0.0295 and 0.05292 and 0.03291
same,"Anisotropy data 485,520,520",MN551 100000 nM; Cycle 7 (30 min),177.5 and 179.4 and 179.5
same,Anisotropy,[18],178.3 and 177.4 and 176.7
same,"Anisotropy data 485,520,520",[18],179.5 and 176.8 and 180.3
same,Anisotropy,[19],176.5 and 176.6 and 177.6
same,Anisotropy based on Raw Data (485),[19],177.8 and 174.7 and 177.2
same,"Anisotropy data 485,520,520",[19],176.8 and 177.8 and 177.3
same,Anisotropy,[20],177.9 and 175.4 and 175.6
same,Anisotropy based on Raw Data (485),[20],177.5 and 174.6 and 176.3
same,"Anisotropy data 485,520,520",[20],177.8 and 176.8
same,Anisotropy,[21],175.3 and 174.1 and 176.7
same,Anisotropy based on Raw Data (485),[21],175.9 and 174.6 and 177.5
same,"Anisotropy data 485,520,520",[21],175.2 and 178.3 and 179.1
same,Anisotropy,MN551 100000 nM; Cycle 12 (55 min); n=1,175.2 and 177.8 and 176.4
same,Anisotropy,MN551 100000 nM; Cycle 13 (60 min),176.1 and 173.8 and 174.4
same,Anisotropy,[22],175.9 and 175 and 176.8
same,Anisotropy based on Raw Data (485),[22],175.1 and 171.7 and 174.9
same,Anisotropy,[23],176.7 and 176.9 and 175.2
same,Anisotropy based on Raw Data (485),[23],174.9 and 172.2 and 172.6
same,Anisotropy,[24],172.5 and 174.8 and 174.1
same,Anisotropy based on Raw Data (485),[24],173.6 and 171.9 and 173.7
same,Anisotropy,[25],173.2 and 173.6 and 174.8
same,Anisotropy based on Raw Data (485),[25],174.9 and 172.9 and 173.1
same,Anisotropy,[26],173 and 167.6
same,Anisotropy based on Raw Data (485),[26],173.3 and 171 and 173.1
same,"Anisotropy data 485,520,520",MN551 100000 nM; Cycle 20 (95 min); n=1,172.6 and 168.6 and 170.5
